Assay results published in patent US20220356256A1.
No constants are given. Whether binding was seen depends on the method and setting. Some entries that bind do so weakly or less than the wild type.

Protein sequences, listed by entry. Tags and fused reporters are not part of them. Residues count along the entry.
UniProt Q9ULV1, residues 40-161: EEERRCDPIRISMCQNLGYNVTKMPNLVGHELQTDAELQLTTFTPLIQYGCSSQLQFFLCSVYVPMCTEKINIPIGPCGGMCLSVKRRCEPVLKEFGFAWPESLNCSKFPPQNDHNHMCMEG

Target: FZD4 CRD region as a GPI linked domain with a myc tag, stably expressed on CHO cells (UniProt Q9ULV1)
Assay: IF staining, CHO-FZD4 cells

binding: binds
B1: Fab 5017 (Fab, V domains shown)
VH: EVQLVESGGGLVQPGGSLRLSCAASGFNLYYTDMHWVRQAPGKGLEWVASISLFFGYVSYADSVKGRFTISADTSKNTAYLQMNSLRAEDTAVYYCARYLAMDYWGQGTLVTVSS
VL: DIQMTQSPSSLSASVGDRVTITCRASQSVSSAVAWYQQKPGKAPKLLIYSASSLYSGVPSRFSGSRSGTDFTLTISSLQPEDFATYYCQQAAYHWPPLFTFGQGTKVEIKR
